# Reference: the supplement of paper PMC11732987, “Enantioselective OTUD7B fragment discovery through chemoproteomics screening and high-throughput optimisation” (Communications Chemistry, 2025)
# Protein sequences, listed by entry. Tags and fused reporters are not part of them. Lines headed by an entry give the natural chain unless they say otherwise; changes in a name come on top. Residues count along the entry.
# UniProt Q86W50: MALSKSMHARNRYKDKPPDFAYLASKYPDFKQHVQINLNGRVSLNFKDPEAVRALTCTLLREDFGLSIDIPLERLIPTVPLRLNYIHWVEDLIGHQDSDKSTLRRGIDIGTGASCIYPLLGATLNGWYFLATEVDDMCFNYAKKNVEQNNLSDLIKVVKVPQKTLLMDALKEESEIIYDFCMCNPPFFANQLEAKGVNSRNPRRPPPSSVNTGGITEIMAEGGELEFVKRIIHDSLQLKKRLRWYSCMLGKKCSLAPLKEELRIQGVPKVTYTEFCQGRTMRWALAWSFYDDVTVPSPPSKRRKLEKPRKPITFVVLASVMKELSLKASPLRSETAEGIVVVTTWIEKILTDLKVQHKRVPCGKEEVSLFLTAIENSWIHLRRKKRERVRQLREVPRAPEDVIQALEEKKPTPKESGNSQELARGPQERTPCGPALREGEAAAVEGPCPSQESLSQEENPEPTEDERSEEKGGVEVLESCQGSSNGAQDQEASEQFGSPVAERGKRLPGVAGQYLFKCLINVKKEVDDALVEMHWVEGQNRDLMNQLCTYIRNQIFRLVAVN
# UniProt Q9NWR8: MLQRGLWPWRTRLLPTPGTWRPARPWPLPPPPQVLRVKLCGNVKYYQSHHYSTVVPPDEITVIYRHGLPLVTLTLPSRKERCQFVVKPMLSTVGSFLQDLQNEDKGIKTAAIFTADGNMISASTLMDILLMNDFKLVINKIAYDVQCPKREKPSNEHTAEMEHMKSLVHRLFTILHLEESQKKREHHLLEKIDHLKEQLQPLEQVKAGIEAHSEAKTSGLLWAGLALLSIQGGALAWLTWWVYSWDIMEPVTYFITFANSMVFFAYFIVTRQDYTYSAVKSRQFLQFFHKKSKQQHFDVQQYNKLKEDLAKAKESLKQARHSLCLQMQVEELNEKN
# UniProt Q9UHV7: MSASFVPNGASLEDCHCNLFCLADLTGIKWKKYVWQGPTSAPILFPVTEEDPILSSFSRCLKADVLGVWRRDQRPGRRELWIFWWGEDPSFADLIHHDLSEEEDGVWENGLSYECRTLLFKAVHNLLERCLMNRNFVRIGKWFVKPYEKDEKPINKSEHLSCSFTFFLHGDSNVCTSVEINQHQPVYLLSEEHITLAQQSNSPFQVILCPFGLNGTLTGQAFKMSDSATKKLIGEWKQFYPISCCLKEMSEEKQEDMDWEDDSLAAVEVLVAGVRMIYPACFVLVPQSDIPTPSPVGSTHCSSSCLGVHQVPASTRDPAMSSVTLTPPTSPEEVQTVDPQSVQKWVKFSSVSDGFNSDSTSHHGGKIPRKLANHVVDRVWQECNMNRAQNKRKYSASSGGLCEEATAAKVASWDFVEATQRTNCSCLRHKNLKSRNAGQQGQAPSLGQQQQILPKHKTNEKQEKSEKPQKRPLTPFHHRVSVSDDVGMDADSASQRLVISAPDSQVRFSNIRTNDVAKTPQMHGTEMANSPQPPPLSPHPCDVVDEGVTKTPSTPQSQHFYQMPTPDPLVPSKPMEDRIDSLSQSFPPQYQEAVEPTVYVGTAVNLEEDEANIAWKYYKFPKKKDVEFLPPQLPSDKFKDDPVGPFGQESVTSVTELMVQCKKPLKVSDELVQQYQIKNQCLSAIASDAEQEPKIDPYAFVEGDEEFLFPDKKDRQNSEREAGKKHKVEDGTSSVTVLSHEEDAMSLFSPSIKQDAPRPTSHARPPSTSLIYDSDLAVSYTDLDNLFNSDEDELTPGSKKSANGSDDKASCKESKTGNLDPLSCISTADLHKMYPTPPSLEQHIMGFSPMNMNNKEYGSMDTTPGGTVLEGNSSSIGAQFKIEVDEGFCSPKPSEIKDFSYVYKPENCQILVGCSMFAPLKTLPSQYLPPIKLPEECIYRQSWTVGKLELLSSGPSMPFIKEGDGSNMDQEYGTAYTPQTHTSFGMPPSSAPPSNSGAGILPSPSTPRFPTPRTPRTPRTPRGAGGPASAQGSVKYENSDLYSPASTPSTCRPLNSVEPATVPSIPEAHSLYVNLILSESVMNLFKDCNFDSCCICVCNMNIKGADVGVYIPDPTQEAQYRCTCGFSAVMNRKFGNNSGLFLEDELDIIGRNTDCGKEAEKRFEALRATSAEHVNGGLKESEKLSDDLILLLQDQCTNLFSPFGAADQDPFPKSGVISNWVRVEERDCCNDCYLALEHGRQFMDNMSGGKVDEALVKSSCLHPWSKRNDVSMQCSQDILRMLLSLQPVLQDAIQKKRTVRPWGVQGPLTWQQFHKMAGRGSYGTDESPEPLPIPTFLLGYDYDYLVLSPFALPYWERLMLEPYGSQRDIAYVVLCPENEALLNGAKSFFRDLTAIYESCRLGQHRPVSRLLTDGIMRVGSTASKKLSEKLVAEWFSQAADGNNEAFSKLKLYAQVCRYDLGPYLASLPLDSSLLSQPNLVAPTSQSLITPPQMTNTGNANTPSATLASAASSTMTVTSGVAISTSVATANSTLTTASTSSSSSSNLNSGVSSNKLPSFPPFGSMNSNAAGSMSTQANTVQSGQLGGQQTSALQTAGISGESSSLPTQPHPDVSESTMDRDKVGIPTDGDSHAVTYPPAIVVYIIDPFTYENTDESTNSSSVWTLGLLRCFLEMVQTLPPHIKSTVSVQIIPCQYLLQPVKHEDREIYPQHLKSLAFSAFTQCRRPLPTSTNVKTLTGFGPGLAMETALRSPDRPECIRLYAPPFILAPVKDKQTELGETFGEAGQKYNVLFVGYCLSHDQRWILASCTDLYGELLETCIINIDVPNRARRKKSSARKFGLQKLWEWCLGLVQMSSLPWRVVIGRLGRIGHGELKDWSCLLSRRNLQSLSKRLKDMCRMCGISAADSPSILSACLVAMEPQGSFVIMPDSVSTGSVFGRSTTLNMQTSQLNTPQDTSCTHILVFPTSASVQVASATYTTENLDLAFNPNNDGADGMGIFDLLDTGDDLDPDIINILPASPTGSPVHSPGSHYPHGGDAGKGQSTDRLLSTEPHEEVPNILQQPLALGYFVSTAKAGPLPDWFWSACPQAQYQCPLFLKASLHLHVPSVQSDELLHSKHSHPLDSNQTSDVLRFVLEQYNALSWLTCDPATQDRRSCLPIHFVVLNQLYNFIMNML
# UniProt Q9BQP7, 64-84: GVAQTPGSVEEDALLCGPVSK
# UniProt Q9H204: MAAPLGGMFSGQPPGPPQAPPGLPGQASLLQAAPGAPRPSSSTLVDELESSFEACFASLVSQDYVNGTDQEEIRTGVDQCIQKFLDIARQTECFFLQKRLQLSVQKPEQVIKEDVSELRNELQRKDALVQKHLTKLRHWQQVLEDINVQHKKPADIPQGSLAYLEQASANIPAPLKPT
# UniProt Q14676: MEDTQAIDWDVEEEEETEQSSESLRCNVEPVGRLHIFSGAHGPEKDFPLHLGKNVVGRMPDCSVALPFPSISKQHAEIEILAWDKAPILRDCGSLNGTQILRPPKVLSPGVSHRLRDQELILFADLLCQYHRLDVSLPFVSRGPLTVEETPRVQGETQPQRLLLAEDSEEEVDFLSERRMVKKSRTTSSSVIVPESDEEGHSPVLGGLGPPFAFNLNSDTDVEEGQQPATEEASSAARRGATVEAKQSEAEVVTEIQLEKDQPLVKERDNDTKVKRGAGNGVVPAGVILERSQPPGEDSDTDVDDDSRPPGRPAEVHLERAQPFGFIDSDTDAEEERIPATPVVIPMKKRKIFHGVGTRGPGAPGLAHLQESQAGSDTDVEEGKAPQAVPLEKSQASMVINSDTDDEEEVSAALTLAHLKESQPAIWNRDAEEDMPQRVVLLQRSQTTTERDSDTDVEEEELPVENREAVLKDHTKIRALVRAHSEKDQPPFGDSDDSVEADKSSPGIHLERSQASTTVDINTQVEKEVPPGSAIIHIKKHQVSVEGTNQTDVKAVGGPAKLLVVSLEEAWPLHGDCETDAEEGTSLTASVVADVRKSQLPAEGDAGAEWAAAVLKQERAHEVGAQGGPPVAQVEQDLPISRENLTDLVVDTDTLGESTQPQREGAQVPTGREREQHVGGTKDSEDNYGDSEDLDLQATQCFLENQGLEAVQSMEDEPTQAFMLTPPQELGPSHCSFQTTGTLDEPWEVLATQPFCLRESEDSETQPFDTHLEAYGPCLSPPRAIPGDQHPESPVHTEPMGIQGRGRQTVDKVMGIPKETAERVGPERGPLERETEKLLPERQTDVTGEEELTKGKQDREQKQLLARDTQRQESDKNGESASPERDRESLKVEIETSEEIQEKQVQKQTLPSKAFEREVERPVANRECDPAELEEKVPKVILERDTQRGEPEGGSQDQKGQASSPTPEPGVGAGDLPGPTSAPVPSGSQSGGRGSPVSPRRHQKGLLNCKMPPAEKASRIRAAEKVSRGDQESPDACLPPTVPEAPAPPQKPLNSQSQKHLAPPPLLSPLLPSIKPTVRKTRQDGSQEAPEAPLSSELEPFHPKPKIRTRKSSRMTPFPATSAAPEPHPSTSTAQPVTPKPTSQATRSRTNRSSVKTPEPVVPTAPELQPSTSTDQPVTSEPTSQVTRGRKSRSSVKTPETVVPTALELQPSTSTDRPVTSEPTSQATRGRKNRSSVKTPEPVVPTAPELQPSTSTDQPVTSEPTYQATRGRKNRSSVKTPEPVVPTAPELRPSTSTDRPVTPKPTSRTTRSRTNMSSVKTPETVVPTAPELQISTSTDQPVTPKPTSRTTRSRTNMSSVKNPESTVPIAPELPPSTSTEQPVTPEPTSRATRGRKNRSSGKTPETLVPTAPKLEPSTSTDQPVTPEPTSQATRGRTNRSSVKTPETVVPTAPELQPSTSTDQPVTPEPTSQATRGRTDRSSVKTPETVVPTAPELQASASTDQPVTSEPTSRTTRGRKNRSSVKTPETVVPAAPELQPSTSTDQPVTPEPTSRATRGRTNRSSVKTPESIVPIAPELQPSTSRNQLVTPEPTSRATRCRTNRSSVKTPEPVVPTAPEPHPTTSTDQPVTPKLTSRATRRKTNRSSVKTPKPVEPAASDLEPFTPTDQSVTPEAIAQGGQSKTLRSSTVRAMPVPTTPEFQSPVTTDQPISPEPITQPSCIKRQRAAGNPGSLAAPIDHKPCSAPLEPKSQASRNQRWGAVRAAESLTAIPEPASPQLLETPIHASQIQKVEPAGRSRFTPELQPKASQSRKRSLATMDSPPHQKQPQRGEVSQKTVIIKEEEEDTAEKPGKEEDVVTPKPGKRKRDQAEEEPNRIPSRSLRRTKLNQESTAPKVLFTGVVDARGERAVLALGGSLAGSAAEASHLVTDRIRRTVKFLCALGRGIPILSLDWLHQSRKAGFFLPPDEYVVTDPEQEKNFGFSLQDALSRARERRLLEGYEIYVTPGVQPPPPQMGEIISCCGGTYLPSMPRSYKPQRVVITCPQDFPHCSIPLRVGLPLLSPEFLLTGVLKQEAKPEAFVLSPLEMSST
# UniProt P46013, 765-786: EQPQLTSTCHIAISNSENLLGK
# UniProt Q9Y316: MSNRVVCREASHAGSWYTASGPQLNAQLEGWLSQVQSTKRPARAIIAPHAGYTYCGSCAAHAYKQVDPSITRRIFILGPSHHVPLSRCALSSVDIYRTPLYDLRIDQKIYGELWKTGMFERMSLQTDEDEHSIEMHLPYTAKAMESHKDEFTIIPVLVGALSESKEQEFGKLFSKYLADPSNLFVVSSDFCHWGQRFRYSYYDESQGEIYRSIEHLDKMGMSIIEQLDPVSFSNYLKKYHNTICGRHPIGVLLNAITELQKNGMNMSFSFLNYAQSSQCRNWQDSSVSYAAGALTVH
# UniProt Q96EY8, 117-136: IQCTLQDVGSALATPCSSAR
# UniProt Q03111: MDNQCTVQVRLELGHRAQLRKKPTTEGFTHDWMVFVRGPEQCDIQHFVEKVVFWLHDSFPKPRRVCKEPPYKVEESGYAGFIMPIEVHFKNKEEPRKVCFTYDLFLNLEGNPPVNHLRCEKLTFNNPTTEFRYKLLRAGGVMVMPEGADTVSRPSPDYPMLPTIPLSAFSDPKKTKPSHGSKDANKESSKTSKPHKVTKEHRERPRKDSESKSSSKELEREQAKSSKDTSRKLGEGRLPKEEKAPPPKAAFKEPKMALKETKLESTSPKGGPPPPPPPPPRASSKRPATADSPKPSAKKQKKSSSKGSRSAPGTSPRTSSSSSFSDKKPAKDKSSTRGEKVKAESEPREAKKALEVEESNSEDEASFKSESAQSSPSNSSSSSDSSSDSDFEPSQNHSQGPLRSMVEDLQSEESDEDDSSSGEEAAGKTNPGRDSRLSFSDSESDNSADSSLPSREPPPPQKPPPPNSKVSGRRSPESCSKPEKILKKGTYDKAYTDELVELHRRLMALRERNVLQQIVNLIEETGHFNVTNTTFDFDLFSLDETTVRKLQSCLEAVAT
# UniProt Q9NWA0: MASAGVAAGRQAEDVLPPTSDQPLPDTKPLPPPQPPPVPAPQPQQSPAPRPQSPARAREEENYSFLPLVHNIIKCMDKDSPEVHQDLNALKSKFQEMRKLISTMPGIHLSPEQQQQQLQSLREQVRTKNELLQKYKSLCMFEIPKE
# Some of the results follow. The data scatter; read single values as rough.
# Compound: ClCC(=O)N[C@H]1CCCc2ccccc12
# Experiment: log2 mean competition ratio of IA-DTB cysteine labelling (DMSO/compound) (log2 ratio); higher = stronger cysteine engagement by compound
# Conditions: 50 µM; treatment time: 4 h; cell line lysate: HEK293T
# Description: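 IA-DTB competitive cysteine chemoproteomics in HEK293T RIPA lysate. Lysates were treated with compound 29 or 30 at 50 or 200 µM for 4 h, then IA-DTB (500 µM, 1 h), trypsin-digested, NeutrAvidin-enriched and analysed by diaPASEF. Competition ratio = intensity DMSO / intensity compound (n=4 treated, n=64 DMSO); binding: mean log2 CR ≥ 1 and p ≤ 0.05 plus QC filters. Target is the cysteine site.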
row,Target,log2 mean competition ratio
1,METTL16 C253 (UniProt Q86W50),-0.323
2,MCUB C147 (UniProt Q9NWR8),0.333
3,MED15 C588 (UniProt Q96RN5),0.245
4,MICU1 C62 (UniProt Q9BPX6),0.05
5,MDN1 C1867 (UniProt Q9NU22),-0.429
6,MED13 C1756 (UniProt Q9UHV7),0.0632
7,MED13 C1399 (UniProt Q9UHV7),-0.0911
8,MGME1 C79 (UniProt Q9BQP7),-0.126
9,MOCOS C686 (UniProt Q96EN8),-0.0717
10,MED28 C80 (UniProt Q9H204),0.0499
11,MDC1 C92 (UniProt Q14676),-0.699
12,MND1 C147 (UniProt Q9BWT6),0.258
13,MKI67 C773 (UniProt P46013),0.465
14,MEMO1 C88 (UniProt Q9Y316),-0.481
15,MPP2 C468,-0.668
16,MMS22L C121 (UniProt Q6ZRQ5),0.231
17,"MMAB_(C119,C119,C132,C132) (UniProt Q96EY8)",0.564
18,MLLT1 C479 (UniProt Q03111),-0.315
19,MORC4 C349,0.109
20,MED9 C75 (UniProt Q9NWA0),0.00583

# Same assay, conditions: 200 µM; treatment time: 4 h; cell line lysate: HEK293T
row,Target,log2 mean competition ratio
1,METTL16 C253 (UniProt Q86W50),0.347
2,MCUB C147 (UniProt Q9NWR8),0.0527
3,MED15 C588 (UniProt Q96RN5),0.0847
4,MICU1 C62 (UniProt Q9BPX6),-0.182
5,MDN1 C1867 (UniProt Q9NU22),0.00749
6,MED13 C1756 (UniProt Q9UHV7),0.211
7,MED13 C1399 (UniProt Q9UHV7),0.0284
8,MGME1 C79 (UniProt Q9BQP7),-0.0499
9,MOCOS C686 (UniProt Q96EN8),0.4
10,MED28 C80 (UniProt Q9H204),-0.0266
11,MDC1 C92 (UniProt Q14676),0.115
12,MND1 C147 (UniProt Q9BWT6),0.0122
13,MKI67 C773 (UniProt P46013),-0.173
14,MEMO1 C88 (UniProt Q9Y316),-0.0242
15,MPP2 C468,-0.239
16,MMS22L C121 (UniProt Q6ZRQ5),-0.0299
17,"MMAB_(C119,C119,C132,C132) (UniProt Q96EY8)",-0.262
18,MLLT1 C479 (UniProt Q03111),-0.00711
19,MORC4 C349,-0.116
20,MED9 C75 (UniProt Q9NWA0),0.241
